Laboratory results: US5811512A (The Trustees of the University of Pennsylvania, priority 1996, dated 1998)
HELM strings list residues between dots; [ac] is acetyl, [am] amide, other brackets name non-standard units.

Assay: general procedure: peptide synthesis; 2-chlorotrityl polystyrene
Settings: whole synthesis, scale 0.25 mmol

Substance | isolated mass [mg]
PEPTIDE1{F.[dW].A.T.F.P}$PEPTIDE1,PEPTIDE1,1:R1-6:R2$$$V2.0 | 14.4
PEPTIDE1{F.[dW].F.T.F.P}$PEPTIDE1,PEPTIDE1,1:R1-6:R2$$$V2.0 | 14
PEPTIDE1{F.[dW].L.T.F.P}$PEPTIDE1,PEPTIDE1,1:R1-6:R2$$$V2.0 | 23
PEPTIDE1{F.[dW].Y.T.F.P}$PEPTIDE1,PEPTIDE1,1:R1-6:R2$$$V2.0 | 13
